Assay results reported in US10064926B2, “Peptides and combination of peptides for use in immunotherapy against hepatocellular carcinoma (HCC) and other cancers” (Immatics biotechnologies GmbH, priority 2014, dated 2018).

Assays:
[1] = system: primary HCC tissue samples; assay: Identification and label-free LC-MS relative quantitation of HLA-presented peptides (presentation profiles/scores), HCC versus normal tissues; design: species or system human; key to PeptidePresentation (presentation score): very highly over-presented on tumors compared to a panel of normal tissues (+++); highly over-presented on tumors compared to a panel of normal tissues (++); over-presented on tumors compared to a panel of normal tissues (+); conditions: HCC tumors compared to a panel of normal tissues
[2] = system: source genes of the peptides in HCC and normal tissues; assay: mRNA expression profiling of source genes by Affymetrix microarray (expression scores); design: species or system human; key: very highly overexpressed in tumors compared to a panel of normal tissues (+++); highly overexpressed in tumors compared to a panel of normal tissues (++); overexpressed in tumors compared to a panel of normal tissues (+); conditions: source gene mRNA in tumors compared to a panel of normal tissues
[3] = system: tumor samples of other tumor types; assay: Over-presentation of peptides on additional tumor types versus normal tissues (LC-MS); design: species or system human; conditions: over-presentation on more than 5% of the measured tumor samples, or presentation on more than 5% with ratio of geometric means tumor vs normal tissues larger than 3

Substance	PeptidePresentation (presentation score) [1]	Gene Expression (expression score) [2]	Additional Entities (additional tumor types on which the peptide was found over-presented) [3]	Other relevant organs/diseases (additional tumor types on which the peptide was found over-presented) [3]
1: peptide found in APOB (gene looked up) (VMAPFTMTI; listed as Homo sapiens) [compound 1]	+++	+++	SCLC, Melanoma, NHL	Pancreas
10: peptide found in USO1 (gene looked up) (SLLEEFDFHV; listed as Homo sapiens) [compound 10]	+++	+	NSCLC, BRCA, OC, Esophageal Cancer, Uterine Cancer	Kidney
20: peptide found in APOB (gene looked up) (KLSNVLQQV; listed as Homo sapiens) [compound 20]	+++	+++	SCLC	
31: peptide found in APOB (gene looked up) (YQMDIQQEL; listed as Homo sapiens) [compound 31]	++	+++	SCLC	
39: peptide found in TNK2 (gene looked up) (ALDPKANFST; listed as Homo sapiens) [compound 39]	+++	+		Kidney, Brain
62: peptide found in GLUL (gene looked up) (KIAGTNAEV; listed as Homo sapiens) [compound 62]	++	+	BRCA	
97: peptide found in APOB (gene looked up) (SLLPQLIEV; listed as Homo sapiens) [compound 97]	++	+++	SCLC	
103: peptide found in GLUL (gene looked up) (SMGDHLWVA; listed as Homo sapiens) [compound 103]	+++	+	BRCA, Urinary bladder cancer, NHL	
114: peptide found in APOB (gene looked up) (VLSQVYSKV; listed as Homo sapiens) [compound 114]	+++	+++	SCLC	
142: peptide found in AQP9 (gene looked up) (AVIGGLIYV; listed as Homo sapiens) [compound 142]	++	+++		
148: peptide found in SLC16A1 (gene looked up) (GLFAPLVFL; listed as Homo sapiens) [compound 148]	+++	+	Esophageal Cancer, Gallbladder Cancer, Bile Duct Cancer, NHL	Kidney
217: peptide found in APOB (gene looked up) (DYIPYVFKL; listed as Homo sapiens) [compound 217]	+++	+++		
218: peptide found in APOB (gene looked up) (VYQGAIRQI; listed as Homo sapiens) [compound 218]	+	+++		
228: peptide found in ACSL4 (gene looked up) (YLITSVELL; listed as Homo sapiens) [compound 228]	++	+	OC, NHL	
233: peptide found in RABGGTB (gene looked up) (ALLGKLDAI; listed as Homo sapiens) [compound 233]	+	+	CLL, OC, Urinary bladder cancer, Gallbladder Cancer, Bile Duct Cancer, AML, NHL	Kidney, Colon, Rectum
263: peptide found in PEX19 (gene looked up) (VLYPSLKEI; listed as Homo sapiens) [compound 263]	+	+	RCC, BRCA, Uterine Cancer	
273: peptide found in RRBP1 (gene looked up) (AILETAPKEV; listed as Homo sapiens) [compound 273]	++	+	Esophageal Cancer	
286: peptide found in MIA3 (gene looked up) (KVLDKVFRA; listed as Homo sapiens) [compound 286]	+	+		
298: peptide found in CRYZ (gene looked up) (TMAKESSIIGV; listed as Homo sapiens) [compound 298]	++	+	SCLC, Gallbladder Cancer, Bile Duct Cancer	
302: peptide found in IGF2BP3 (gene looked up) (KIQEILTQV; listed as Homo sapiens) [compound 302]	+++	+	NSCLC, SCLC, GC, Melanoma, OC, Esophageal Cancer, Urinary bladder cancer, Uterine Cancer, Gallbladder Cancer, Bile Duct Cancer, AML, NHL, PC	Kidney, Brain, Colon, Rectum, Pancreas, CLL
318: peptide found in CPS1 (gene looked up) (KLNEINEKI; listed as Homo sapiens) [compound 318]	+	+++		
320: peptide found in TARS1 (gene looked up) (GLADNTVIAKV; listed as Homo sapiens) [compound 320]	+	+		
327: peptide found in NDC80 (gene looked up) (GLNEEIARV; listed as Homo sapiens) [compound 327]	++	+		Brain, Colon, Rectum

For some assays here: Expression values are those of the mRNA of the gene that encodes the peptide; a gene is named only where it was looked up.
